{"source": "patent US6869939B2", "about": "“Formulations containing amiodarone and sulfoalkyl ether cyclodextrin” (CyDex, Inc., priority 2002, dated 2005)", "key": {"[1]": {"conditions": "without heating"}, "[2]": {"conditions": "cited from earlier work"}}, "note": "Read-outs that look alike come from different tables or passages of the source."}
{"smiles": "CCCCc1oc2ccccc2c1C(=O)c1cc(I)c(OCCN(CC)CC)c(I)c1.Cl", "note": "[Amiodarone HCl, (2-butyl-3-benzofuranyl)[4-[2-(diethylamino)ethoxy]-3,5-diiodophenyl]methanone hydrochloride]", "values": [{"measurement": "amiodarone concentration that can be achieved", "setting": "[1]; SAE-CD 0.37 M, 80% wt.", "value": "at least 100 mg/mL"}, {"measurement": "amiodarone concentration that can easily be achieved", "setting": "[1]; […]", "value": "about 35 mg/ml"}, {"measurement": "amiodarone concentration that could be achieved", "setting": "[2]; 25° C. (Ravin et al. 1975)", "value": 0.35, "unit": "mg/mL"}, {"measurement": "amiodarone concentration that could be achieved", "setting": "[2]; 40° C. (Ravin et al. 1975)", "value": 0.95, "unit": "mg/mL"}, {"measurement": "amiodarone concentration that could be achieved", "setting": "[2]; about 60° C. (Ravin et al. 1975)", "value": "> 13", "unit": "mg/mL"}]}
